# PubChem BioAssay AID485314 (National Center for Advancing Translational Sciences (NCATS), 2010)
# Out of some 340,000 compounds screened, about 4,500 (1.3%) were called active. The shares of active, inactive and inconclusive entries below differ from those in the screen. The call rests on the fitted dose curve; in most records, active means well fitted inhibition curve with a large enough effect; inconclusive means small, poorly fitted or top-dose-only effect, or another doubt; inactive means no such curve, though single readings can be large or run the other way. Potencies of inconclusive entries are doubtful fits and often do not repeat.
# Target: DNA polymerase beta (Homo sapiens) (UniProt P06746)
# Test: qHTS Assay for Inhibitors of DNA Polymerase Beta
# Settings: Pol beta primer extension/strand displacement, fluorescence kinetic; activity change, negative = inhibition: at 114 µM (top of the series)
# Procedure, shortened: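 Human Pol beta at 10 nM; strand-displacement substrate 50 nM final. Compound exposure 15 min at room temperature before start, reaction 10 min at room temperature.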
# On the % scale 0 is the no-effect control and ±100 the full control effect; potency means the concentration at half of the fitted maximal effect.
Compound,Potency,"activity change, negative = inhibition"
C/C(N)=C(/C#N)C(=O)CSc1nnc(Nc2cccc(C)c2)s1,active: 39.8 µM,–
COCCN(C(=S)Nc1ccccc1OC)C1CCN(C(C)C)CC1,"inconclusive: 89.1 µM [inhibitor, single point]",–
COc1ccc(N2CCN(S(=O)(=O)c3ccc4c(c3)NC(=O)C(C)C(=O)N4)CC2)cc1 (centres undefined),"inconclusive: 3.16 µM [inhibitor, partial curve]",–
Cc1c(OC(C)C(=O)NCC(O)c2ccccc2)ccc2c3c(c(=O)oc12)CCCC3 (centres undefined),inactive,–
O=C(CSc1nc(O)cc(=O)n1-c1ccccc1)c1ccc(Br)cc1,"inconclusive: 79.4 µM [inhibitor, single point]",–
O=C(Cn1c(=O)n(Cc2ccco2)c(=O)c2c3c(sc21)CCCCC3)c1ccccc1,active: 10 µM,–
C=CCNc1nc(Nc2ccc([N+](=O)[O-])cc2)nc(N2CCCC2)n1,"inconclusive: 89.1 µM [inhibitor, single point]",–
CCOc1ccc(Cl)cc1C(c1c(C)[nH][nH]c1=O)c1c(C)[nH][nH]c1=O,inactive,–
COc1ccc2c(c1OC)C(=O)OC2,inactive,–
COc1ccc(C(=O)O)cc1S(=O)(=O)NCCN(C)C,"inconclusive: 89.1 µM [inhibitor, single point]",–
COc1cc(C(C)=O)ccc1OCC(O)CN(CCO)Cc1ccccc1 (centres undefined),"inconclusive: 89.1 µM [inhibitor, single point]",–
O=C(CNCc1ccc(F)cc1)Nc1ccc(C(=O)N2CCCCC2)cc1,inactive,–
C=CCN(c1ccc(C(=O)Nc2ccc(NC(C)=O)cc2)cc1)S(C)(=O)=O,inactive,–
O=Cc1ccc(Oc2nc(Cl)ncc2F)cc1,"inconclusive: 44.7 µM [inhibitor, partial curve]",–
Cc1ccc2c(CC(=O)OCc3cc(=O)n4c(n3)sc3ccccc34)coc2c1,active: 10 µM,–
CSCC[C@H](NC(=O)c1ccc2ccccc2c1)C(=O)N1CCC2(CC1)NCCc1[nH]cnc12,"inconclusive: 0.158 µM [inhibitor, partial curve, poor fit]",–
COc1ccc(Nc2c3c(nc4ccc(NC(=O)/C=C/c5cc(OC)c(OC)c(OC)c5)cc24)CCCC3)cc1OC,inactive,–
Cc1nn(Cc2ccc(Cl)c(Cl)c2)c(C)c1NC(=O)c1cc(C2CC2)on1,"inconclusive: 14.1 µM [inhibitor, full curve]",–
COCCN=c1scc(-c2ccco2)n1/N=C/c1ccc(O)c(O)c1O,active: 2.82 µM,–
CC(C)n1c2ccccc2c2nnc(SCC(=O)Nc3ccccc3C(=O)O)nc21,"inconclusive: 63.1 µM [inhibitor, single point]",–
Cc1ccc(Cn2ccc(NC(=O)c3cc(-c4ccc5c(c4)OCO5)on3)n2)cc1,"inconclusive: 5.01 µM [inhibitor, single point]",–
CCc1nnc(NC(=O)CSc2nnc(CNC(=O)c3ccc(OC)c(OC)c3)o2)s1,"inconclusive: 1.58 µM [inhibitor, full curve, poor fit]",–
CCOc1cc(C)c(-c2onc(C(F)(F)F)c2-c2csc(C)n2)c(O)c1,"inconclusive: 35.5 µM [inhibitor, full curve, poor fit]",–

Compound,Potency,"activity change, negative = inhibition"
Cc1ccc(NNC2CC(=O)N(c3cccc(Cl)c3)C2=O)cc1 (centres undefined),"inconclusive: 15.8 µM [inhibitor, full curve]",–
O=c1c(OC2OC(CO)C(O)C(O)C2OC2OC(CO)C(O)C(O)C2O)c(-c2ccc(O)cc2)oc2cc(O)cc(O)c12 (centres undefined),active: 22.4 µM,–
Cc1oc(C)c2c(=O)ccc3c(c12)OC(N)=C(C#N)C3c1ccccc1Cl (centres undefined),"inconclusive: 35.5 µM [inhibitor, partial curve]",–
CN1CCN(c2ccccc2NC(=O)c2ccc(-c3ccccc3)cc2)CC1,"inconclusive: 89.1 µM [inhibitor, single point]",–
CN(C)c1ccc(CNC(=O)C2CCCN(S(=O)(=O)c3ccc4c(c3)oc(=O)n4C)C2)cc1 (centres undefined),inactive,–
O=C(/C=C/c1ccccc1)Nc1ccc2c(c1)OCCO2,"inconclusive: 89.1 µM [inhibitor, single point]",–
C=CCC1(N(C(C)=O)c2ccccc2)CCCCC1,"inconclusive: 89.1 µM [inhibitor, single point]",–
Cc1cccc(OCC(=O)NC(Cc2c[nH]c3ccccc23)C(=O)O)c1C (centres undefined),"inconclusive: 17.8 µM [inhibitor, single point]",–
O=C(O)c1cc2c(o1)CCC/C2=N\O,active: 89.1 µM,–
COc1ccc(/C=C/C(=O)NCCN=C2NS(=O)(=O)c3ccccc32)cc1,"inconclusive: 1.12 µM [inhibitor, full curve, poor fit]",–
CCN1C(=O)c2ccccc2Sc2ccc(NC(=O)COc3ccc(Cl)cc3)cc21,inactive,–
O=C1NC(=S)CN1c1ccccc1,inactive,–
CN1CCN(c2ncc3c(n2)CCN(Cc2cc(Br)cs2)C3)CC1,inactive,–
COc1ccc(/C=N/NC(=O)c2ccc(C)cc2)cc1CN1CCN(c2ccc(F)cc2)CC1,inactive,–
CCCCOc1ccc(NC(=O)Nc2nnc(C)s2)cc1,"inconclusive: 89.1 µM [inhibitor, single point]",–
O=C(Nc1ccc(N2CCN(C(=O)c3ccco3)CC2)cc1)C(c1ccccc1)c1ccccc1,"inconclusive: 89.1 µM [inhibitor, single point]",–
Cc1cc(C)c2nc(N3CCCC(C(=O)NCc4cccc(Cl)c4)C3)sc2c1 (centres undefined),inactive,–
Cn1c(N/N=C/c2cc3ccccc3nc2Cl)nc2ccccc21,"inconclusive: 3.98 µM [inhibitor, full curve, poor fit]",–
N#CC1(NC(=O)COC(=O)CCN=C2NS(=O)(=O)c3ccccc32)CCCCC1,"inconclusive: 100 µM [inhibitor, single point]",–
O=C(CSc1n[nH]c(=O)[nH]c1=O)Nc1ccc2c(c1)C(=O)c1ccccc1C2=O,active: 2.82 µM,–
COc1ccc2[nH]c(C(=O)N/N=C/c3ccc(OC)c(O)c3)cc2c1,active: 28.2 µM,–
NC(=O)C[C@@H]1N[C@]2(C(=O)Nc3ccccc32)[C@@H]2C(=O)N(c3cc(C(F)(F)F)ccc3Cl)C(=O)[C@H]12,"inconclusive: 2.82 µM [inhibitor, full curve, poor fit]",–
CCOC(=O)c1ccc(N2C(=O)c3n[nH]c(C)c3C2c2cccnc2)cc1 (centres undefined),"inconclusive: 100 µM [inhibitor, single point]",–

# Ordered by SMILES length (smallest number first): part of the list above.
Compound,Potency,"activity change, negative = inhibition"
O=C(O)c1cc2c(o1)CCC/C2=N\O,active: 89.1 µM,–
CN1CCN(c2ncc3c(n2)CCN(Cc2cc(Br)cs2)C3)CC1,inactive,–
COc1ccc(/C=C/C(=O)NCCN=C2NS(=O)(=O)c3ccccc32)cc1,"inconclusive: 1.12 µM [inhibitor, full curve, poor fit]",–

# Next results:

Compound,Potency,"activity change, negative = inhibition"
COc1ccc(-n2c(C)cc(/C=C3\SC(=S)NC3=O)c2C)cc1,inactive,–
CCOc1ccc(/C=C2\SC(=S)N(CCC(=O)N(CCO)c3ccccc3)C2=O)cc1,"inconclusive: 1.26 µM [inhibitor, full curve, poor fit]",–
O=C1/C(=C/c2ccco2)Cc2ccccc21,"inconclusive: 89.1 µM [inhibitor, single point]",–
CCOC(=O)c1[nH]c(C)c(C(=O)O)c1C,inactive,–
O=C(O)C1CC(c2ccc(F)cc2)=NO1 (centres undefined),active: 7.94 µM,–
CCC(CC)c1nnc(NC(=O)C2COc3ccccc3O2)s1 (centres undefined),"inconclusive: 7.94 µM [inhibitor, full curve, poor fit]",–
CC(C)CC(NC(=O)OC(C)(C)C)c1cn([C@@H](Cc2cc3ccccc3[nH]2)C(=O)N2CCN(C(=O)OC(C)(C)C)CC2)nn1 (some centres undefined),"inconclusive: 25.1 µM [inhibitor, partial curve, poor fit]",–
CCn1c(CCc2nc3ccccc3[nH]2)n[nH]c1=S,inactive,–
CCC12CN3CC(CC)(CN(C1)C31C(=O)N(C)c3ccc(C)cc31)C2=O (centres undefined),"inconclusive: 89.1 µM [inhibitor, single point]",–
O=c1c2sc3ccccc3c2n(Cc2ccccc2F)c(=O)n1Cc1ccccc1,inactive,–
COc1cccc(CNC(=O)C2CCN(C(=O)N3CCOc4ccc(Cl)cc43)CC2)c1OC,inactive,–
COc1ccc(Cl)cc1NC(=O)c1cc(C)nc2c1c(C)nn2-c1ccccc1,inactive,–
CCOC(=O)c1c(C(F)(F)C(F)(F)C(F)(F)C(F)(F)F)n[nH]c1C,"inconclusive: 28.2 µM [inhibitor, partial curve]",–
Nc1nn2c(C(F)(F)F)cc(=O)[nH]c2c1N=Nc1cccc(F)c1,inactive,–
COC(=O)c1cccc(NC(=O)CSc2ncn[nH]2)c1,"inconclusive: 39.8 µM [inhibitor, single point]",–
Cc1cc(C)c2nc(-c3ccccn3)cc(C(=O)Nc3ccc(S(=O)(=O)Nc4onc(C)c4C)cc3)c2c1,"inconclusive: 50.1 µM [inhibitor, partial curve, poor fit]",–
CC(=O)Oc1ccccc1N(C(C)=O)S(=O)(=O)c1cccc([N+](=O)[O-])c1,"inconclusive: 0.501 µM [inhibitor, full curve, poor fit]",–
O=C(Cn1c(=O)oc2ccccc21)Nc1ccc(Cl)cc1,"inconclusive: 70.8 µM [inhibitor, single point]",–
Cc1nc(C)c(-c2ccc(SCC(=O)Nc3ccc(Cl)c(Cl)c3)nn2)s1,inactive,–
COc1ccccc1-c1ccc(SCc2ccc(F)cc2)nn1,"inconclusive: 39.8 µM [inhibitor, single point]",–
COc1ccc(-c2nc3cc(NC(=O)Cc4ccc(Cl)cc4)ccc3o2)cc1OC,–,inconclusive: -68.6% [inhibitor]
CCCS(=O)(=O)c1nc(S(=O)(=O)c2ccc(C)cc2)c(NCc2ccco2)s1,"inconclusive: 89.1 µM [inhibitor, partial curve, poor fit]",–
Cc1ccc(Cl)cc1Nc1nc2ccccc2c2nncn12,"inconclusive: 89.1 µM [inhibitor, single point]",–

# Reprinted at random: 3 entries already listed, in no set order.
Compound,Potency,"activity change, negative = inhibition"
COc1ccc(-n2c(C)cc(/C=C3\SC(=S)NC3=O)c2C)cc1,inactive,–
CCC12CN3CC(CC)(CN(C1)C31C(=O)N(C)c3ccc(C)cc31)C2=O (centres undefined),"inconclusive: 89.1 µM [inhibitor, single point]",–
O=C1/C(=C/c2ccco2)Cc2ccccc21,"inconclusive: 89.1 µM [inhibitor, single point]",–
